Experimental data reported in the supplement of paper PMC11732987, “Enantioselective OTUD7B fragment discovery through chemoproteomics screening and high-throughput optimisation” (Communications Chemistry, 2025).
The other results are listed elsewhere or left out. The data scatter; read single values as rough.

target: T1, AHI1 C194 (UniProt Q8N157); assay: log2 mean competition ratio of IA-DTB cysteine labelling (DMSO/compound) (log2 ratio); higher = stronger cysteine engagement by compound; conditions: 50 µM; treatment time: 4 h; cell line lysate: HEK293T
T1 sequence (whole entry): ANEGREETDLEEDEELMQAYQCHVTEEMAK
Method: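 IA-DTB competitive cysteine chemoproteomics in HEK293T RIPA lysate. Lysates were treated with compound 29 or 30 at 50 or 200 µM for 4 h, then IA-DTB (500 µM, 1 h), trypsin-digested, NeutrAvidin-enriched and analysed by diaPASEF. Competition ratio = intensity DMSO / intensity compound (n=4 treated, n=64 DMSO); binding: mean log2 CR ≥ 1 and p ≤ 0.05 plus QC filters. Target is the cysteine site.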

Compound | log2 mean competition ratio
O=C(CCl)N[C@@H]1CCCc2ccccc21 | -0.258
O=C(CCl)N[C@H]1CCCc2ccccc21 | 0.0866

same assay, conditions: 200 µM; treatment time: 4 h; cell line lysate: HEK293T

Compound | log2 mean competition ratio
O=C(CCl)N[C@@H]1CCCc2ccccc21 | -0.329
O=C(CCl)N[C@H]1CCCc2ccccc21 | 0.0687
